Earlier results, collected in patent US8367718B2, “Epigallocatechin gallate trimer and α-glucosidase inhibitor containing epigallocatechin gallate polymer” (Suntory Holdings Limited, priority 2008, dated 2013).
At least one compound was matched to its structure with a doubt left.

Molecular target: maltase
Settings: background art, literature values; read-out: maltase inhibitory activity IC50; cited from earlier work

For `Oc1cc(O)c2cc(O)c(-c3ccc(O)c(O)c3)[o+]c2c1` [cyanidin], the IC50 is listed as 193 µM.
